Laboratory results: PubChem BioAssay AID493014 (National Center for Advancing Translational Sciences (NCATS), 2011)
Some of the results follow. Shown are side measurements of this screen, not its main read-out; they come without a call. The list favours compounds with an active or inconclusive main result. Potencies come from curve fits of mixed quality, noted in brackets.

Assay: qHTS Assay to Find Inhibitors of Chronic Active B-Cell Receptor Signaling
Details: ABC-DLBCL IkBa-CBG/CBR reporter, luminescence ratio (green luciferase fused to IkBa over red control in TMD8 lymphoma cells), 4 h
Procedure, shortened: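 TMD8 ABC-DLBCL cells carrying doxycycline-inducible green luciferase fused to IkappaBalpha plus unfused red luciferase were exposed to compounds (up to 46 uM) for 4 hrs at 37C. Activity came from the overlap-corrected green/red luminescence ratio.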

[1] = measured here: CBR red luminescence, cell number
[2] = measured here: IkBa-CBG green luminescence

SMILES | AC50 [1] | AC50 [2]
Cc1ccc(Nc2nc(-c3cccs3)cs2)nc1 | 3.55 µM [falling, partial curve] | 
COc1ccc(/C=N/Nc2cc(C)nc3ccccc23)cc1 | 20 µM [falling, single point] | 
COc1ccc(NC(=O)Cc2ccc(C)c(C)c2)cc1Cl | 17.8 µM [rising, partial curve, poor fit] | 
CCCn1c(SCC(=O)c2cc(C)n(-c3ccc4c(c3)OCO4)c2C)n[nH]c1=O | 32.6 µM [falling, partial curve, poor fit] | 
CCn1cc(C(=O)Nc2cccc(C)c2)c(=O)c2ccc(C)nc21 | 28.2 µM [rising, single point] | 
CC1(C)CC(=O)C2=C(C1)NC(=O)CC2c1cccc(F)c1 (stereo unspecified) | 35.5 µM [falling, partial curve, poor fit] | 
COc1ccccc1N=Nc1c(C)n[nH]c1C | 20 µM [rising, partial curve] | 35.5 µM [falling, single point]
CN(CC1CCCO1)S(=O)(=O)c1ccc(C(=O)Nc2ccc([N+](=O)[O-])cc2)cc1 (stereo unspecified) | 0.112 µM [rising, full curve, poor fit] | 
CCOC(=O)C(C(=O)Nc1cccc(C)n1)C1CCCCC1 (stereo unspecified) | 0.355 µM [rising, full curve, poor fit] | 
COc1ccccc1NS(=O)(=O)c1ccc(NN=C2CCCCC2)c([N+](=O)[O-])c1 | 25.9 µM [falling, partial curve] | 
Cc1nc(-c2c(C(=O)NNC(=O)Nc3c(C)cccc3C)noc2C)cs1 | 1.41 µM [rising, full curve] | 
CCCCOC(=O)c1ccc(NC(=O)C(=O)NCc2ccccn2)cc1 | 7.08 µM [rising, partial curve] | 
FC(F)(F)Oc1ccccc1-c1nnc(-c2cccc(C(F)(F)F)c2)o1 | 5.01 µM [rising, partial curve, poor fit] | 
N#CCCN(C(=O)COC(=O)Cc1c[nH]c2ccccc12)c1ccccc1 | 3.26 µM [rising, partial curve, poor fit] | 
Cn1c(SCC(=O)Nc2ccccc2F)nc2c(c1=O)SCC2 | 15.8 µM [falling, single point] | 
COc1ccc(/C=N/NC(=O)COc2ccc(Cl)cc2Cl)cc1Cn1nc(C)cc1C | 16.4 µM [falling, partial curve] | 
COc1ccccc1CN1CCN(Cc2ccc3ccccc3c2)CC1 | 1.41 µM [rising, full curve, poor fit] | 
Nc1nc2ccc(C(=O)Nc3ccc(N4CCOCC4)cc3)cc2s1 | 7.31 µM [falling, partial curve] | 
O=C(Nc1ccccn1)c1ccc(S(=O)(=O)N2CCCCCC2)cc1 | 16.4 µM [falling, single point] | 
CCC(CC)c1nc(C(N)=O)c2[nH]c(=O)n(-c3ccc(OC)c(OC)c3)c2n1 | 20 µM [rising, partial curve, poor fit] | 
Cc1c(NS(=O)(=O)c2ccccc2F)c(=O)n(-c2ccccc2)n1C | 6.31 µM [falling, single point] | 
Cc1cc(C)n2nc(SCc3ncc(-c4ccccc4)o3)nc2n1 | 3.66 µM [rising, full curve, poor fit] | 

SMILES | AC50 [1] | AC50 [2]
CCc1ccc(NC(=O)c2onc(C)c2Cl)cc1 | 29.1 µM [falling, single point] | 
CSc1ccc(/C=N/Nc2ccc(Cl)c(C(=O)O)c2)cc1 | 0.891 µM [falling, full curve] | 
Cc1cc(=O)[nH]c(SCCCOc2ccccc2Cl)n1 | 29.1 µM [falling, single point] | 
Cc1csc(Nc2nc(N)c(C(=O)Nc3ccccc3)o2)n1 | 14.1 µM [falling, partial curve, poor fit] | 11.2 µM [rising, partial curve, poor fit]
Nc1[nH]ncc1-c1ccccc1 | 35.5 µM [falling, single point] | 
CC1=C(C(=O)OCc2ccc3c(c2)OCO3)C(c2ccccc2OCc2ccccc2)NC(=O)N1 (stereo unspecified) | 25.9 µM [falling, partial curve, poor fit] | 
CC1(c2ccccc2Cl)NC(=O)N(CC(=O)NC(=O)NCc2ccco2)C1=O (stereo unspecified) | 0.794 µM [rising, full curve, poor fit] | 
CCOC(=O)C1=C(C)N=C2SC(CC)C(=O)N2C1c1cccc(F)c1 (stereo unspecified) | 9.2 µM [falling, partial curve, poor fit] | 
COc1cccc(CC(=O)Nc2ncc(C)s2)c1 |  | 17.8 µM [rising, partial curve, poor fit]
O=C(CNC(=O)c1cc(Cl)cc([N+](=O)[O-])c1)OCC(=O)N1CCCCC1 | 2.91 µM [rising, partial curve, poor fit] | 
Cc1ccc(CNC(=O)COC(=O)CSc2ccc(Br)cc2C)cc1 | 6.51 µM [falling, single point] | 
CCC/C(O)=C1\C(=O)CCCC1=NCCc1c(C)[nH]c2ccc(OC)cc12 |  | 15.8 µM [rising, partial curve, poor fit]
O=C1CCCC2=C1C(c1ccc(Cl)cc1)C1C(=O)c3ccccc3C1=N2 (stereo unspecified) | 15.8 µM [falling, single point] | 
Cc1cccc2nc(COc3ccc4ccccc4c3Br)cn12 | 35.5 µM [falling, single point] | 
FC(F)(F)c1cc(-c2ccco2)nc(N2CCN(c3ccccc3)CC2)n1 | 13 µM [rising, partial curve, poor fit] | 
C[C@H](NC(=O)c1[nH]cnc1C(=O)Nc1ccc(Cl)cc1)c1ccccc1 | 29.1 µM [rising, single point] | 
C1COCCNCCOCCOCCN1 | 1 µM [falling, partial curve, poor fit] | 
CCC1=NN(C(=O)c2ccc(Cl)cc2)C(O)(c2ccc(C)cc2)C1 (stereo unspecified) | 10 µM [falling, partial curve] | 
O=C1CSc2ccc(S(=O)(=O)N3CCN(c4ccccc4)CC3)cc2N1 | 12.6 µM [falling, single point] | 
CCOc1ccc2oc(C(=O)N(C)CCc3ccc(OC)c(OC)c3)c(C)c2c1 | 13 µM [rising, partial curve, poor fit] | 
CC(C)CCNC(=O)C1CC(c2cccc(F)c2)=NO1 (stereo unspecified) | 7.94 µM [rising, partial curve, poor fit] | 
COc1ccc(-c2cc(C(=O)NCC(C)C)no2)cc1 | 0.291 µM [falling, full curve, poor fit] | 

SMILES | AC50 [1] | AC50 [2]
Cc1ccccc1-c1cc(C(=O)Nc2nc3c(s2)CCCC3)c2ccccc2n1 | 7.08 µM [falling, partial curve, poor fit] | 
O=C(/C=C/c1ccc(S(=O)(=O)N2CCOCC2)cc1)NC(=S)Nc1ccc(Cl)cc1Cl | 14.1 µM [rising, partial curve, poor fit] | 
CCOC(=O)c1csc(N/N=C2\CCCc3ccccc32)n1 | 3.98 µM [rising, partial curve, poor fit] | 
COc1ccccc1C1CCN(C(=O)c2cccc([N+](=O)[O-])c2)CC1 | 12.6 µM [falling, single point] | 
COc1ccc2c(-c3ccccc3)cc(SCC(=O)N(C)C)nc2c1 | 22.4 µM [falling, single point] | 
CCOC(=O)N1CCC(N(CCN(C)C)C(=S)Nc2ccc(OCC)cc2)CC1 | 25.1 µM [rising, single point] | 
OCCNc1nc(NCCC2=CCCCC2)nc(N2CCOCC2)n1 | 1.78 µM [rising, partial curve, poor fit] | 
CCOc1cc(C(=O)CSc2nnc(CNc3ccc(Cl)cc3)o2)ccc1NC(=O)CC | 3.16 µM [falling, single point] | 
CC(C)[C@H](NS(=O)(=O)c1ccc2c(c1)OCCO2)C(=O)OCC(=O)Nc1ccccc1 | 14.6 µM [falling, partial curve] | 
CCn1c(SCC(=O)Nc2nc3ccccc3s2)nc2c(c1=O)SC(C)C2 (stereo unspecified) | 17.8 µM [falling, single point] | 
CCOc1ccc(N2CC(C(=O)Nc3cccnc3)CC2=O)cc1 (stereo unspecified) | 3.98 µM [rising, full curve, poor fit] | 
CCOC(=O)c1sc(=S)n(-c2ccc(F)c(F)c2)c1N | 4.61 µM [falling, single point] | 
COc1ccc(CNC(=O)C(CC(C)C)NC(=O)c2ccccc2C)cc1 (stereo unspecified) | 0.501 µM [rising, full curve, poor fit] | 
O=C(CN1C(=O)CC(c2ccco2)Sc2ccccc21)NC1CCCCC1 (stereo unspecified) | 3.98 µM [falling, full curve, poor fit] | 
Cc1cccc(NC(=O)c2cc3c([nH]c4ccccc43)c(C)n2)c1C | 8.2 µM [falling, partial curve] | 
O=C(OC1CCCCC1)c1ccc(NC(=O)c2ccco2)cc1 | 0.291 µM [rising, full curve, poor fit] | 
COCCCn1c(=O)/c(=C\c2ccccc2OC(C)C)s/c1=C(/C#N)C(=O)Nc1ccc(C(=O)O)cc1 | 7.94 µM [falling, partial curve] | 
CCOc1ccc2nc(NC(=O)c3ccc(OCC4CCCO4)cc3)sc2c1 (stereo unspecified) | 13 µM [falling, partial curve, poor fit] | 
O=C(CN1C(=O)c2ccccc2S1(=O)=O)NCCc1ccc(F)cc1 | 0.326 µM [rising, full curve, poor fit] | 
Brc1cccc(OCCSc2ncccn2)c1 | 11.2 µM [rising, partial curve, poor fit] | 

Three compounds picked at random from those above, as already listed:
SMILES | AC50 [1] | AC50 [2]
CC(C)[C@H](NS(=O)(=O)c1ccc2c(c1)OCCO2)C(=O)OCC(=O)Nc1ccccc1 | 14.6 µM [falling, partial curve] | 
O=C(CN1C(=O)c2ccccc2S1(=O)=O)NCCc1ccc(F)cc1 | 0.326 µM [rising, full curve, poor fit] | 
CCCn1c(SCC(=O)c2cc(C)n(-c3ccc4c(c3)OCO4)c2C)n[nH]c1=O | 32.6 µM [falling, partial curve, poor fit] | 
